According to publication PMC11442824:
Results are given in words; binding and its absence hold for the method and conditions named. Binding seen in cells or lysates may run through a third protein. A result given as binding can be weak or reduced; the word gives no strength.

Columns and labels:
[1] = biological target: AMPKα (human (endogenous in a human podocyte cell line)); test: proximity ligation; Duolink in situ PLA on fixed, permeabilised podocytes with anti-TRIM56 and anti-AMPKα; cells under low glucose, high glucose, or high glucose with PVT1 ASO
[2] = biological target: AMPKα (human (endogenous in a human podocyte cell line)); test: co-IP; endogenous TRIM56 and AMPKα in lysate of cultured human podocytes; immunoprecipitation and immunoblotting; which protein was precipitated is not given

binding [1]: binds
binding [2]: binds
B1: tripartite motif (TRIM) 56 (protein, UniProt Q9BRZ2-1 1-755)
chain: MVSHGSSPSLLEALSSDFLACKICLEQLRAPKTLPCLHTYCQDCLAQLADGGRVRCPECRETVPVPPEGVASFKTNFFVNGLLDLVKARACGDLRAGKPACALCPLVGGTSTGGPATARCLDCADDLCQACADGHRCTRQTHTHRVVDLVGYRAGWYDEEARERQAAQCPQHPGEALRFLCQPCSQLLCRECRLDPHLDHPCLPLAEAVRARRPGLEGLLAGVDNNLVELEAARRVEKEALARLREQAARVGTQVEEAAEGVLRALLAQKQEVLGQLRAHVEAAEEAARERLAELEGREQVARAAAAFARRVLSLGREAEILSLEGAIAQRLRQLQGCPWAPGPAPCLLPQLELHPGLLDKNCHLLRLSFEEQQPQKDGGKDGAGTQGGEESQSRREDEPKTERQGGVQPQAGDGAQTPKEEKAQTTREEGAQTLEEDRAQTPHEDGGPQPHRGGRPNKKKKFKGRLKSISREPSPALGPNLDGSGLLPRPIFYCSFPTRMPGDKRSPRITGLCPFGPREILVADEQNRALKRFSLNGDYKGTVPVPEGCSPCSVAALQSAVAFSASARLYLINPNGEVQWRRALSLSQASHAVAALPSGDRVAVSVAGHVEVYNMEGSLATRFIPGGKASRGLRALVFLTTSPQGHFVGSDWQQNSVVICDGLGQVVGEYKGPGLHGCQPGSVSVDKKGYIFLTLREVNKVVILDPKGSLLGDFLTAYHGLEKPRVTTMVDGRYLVVSLSNGTIHIFRVRSPDS
